Results deposited as PubChem BioAssay AID1224828 (NIAID, 2016)
Shown is an unselected part of about 17,000 reagents. Of all reagents, 762 (4.5%) are marked active. 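Active calls include both raised and lowered p65 entry, mostly lowered; wells with fewer than 50 cells lack a z-score.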 Raw values are not corrected between plates.

Screen: 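Knock-downs that increase or decrease LPS-induced p65 nuclear translocation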 (primary screen)
System: mouse RAW264.7 G9 macrophage reporter cells (GFP-p65, Tnf promoter-mCherry)
Reagent: siRNA pool against mouse genes, 100 nM
Time to read-out: 2 days siRNA transfection, then 40 min LPS before fixation
Treatment: LPS (Salmonella minnesota R595) at 10 ng/ml
Measured: 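Imaged p65 nuclear translocation ratio, normalised to the plate median, converted to robust z-scores and averaged across two replicates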
Scale: p65 translocation robust z-score: higher = more nuclear NF-kappaB p65 after LPS than the plate median; nuclear/cytoplasmic p65 ratio: higher = more nuclear NF-kappaB p65
Rule for the call: 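Called active when z exceeds 3.3 or falls under -1.56 (median of Tlr4 controls), giving activity score of at least 50; no calls for control wells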
Meaning of the calls: active = hit (p65 shift raised or lowered); inactive = no clear change

Efs
- p65 translocation robust z-score: 0.2
- nuclear/cytoplasmic p65 ratio, rep 1: 1.48
- nuclear/cytoplasmic p65 ratio, rep 2: 1.41
- low cell count flag: enough cells to score
- Call: inactive

Lbx2
- p65 translocation robust z-score: -0.13
- nuclear/cytoplasmic p65 ratio, rep 1: 1.61
- nuclear/cytoplasmic p65 ratio, rep 2: 1.35
- low cell count flag: enough cells to score
- Call: inactive

Aknaos
- nuclear/cytoplasmic p65 ratio, rep 1: 1.1
- nuclear/cytoplasmic p65 ratio, rep 2: 1.16
- low cell count flag: fewer than 50 cells per well; well left out of scoring
- Call: inactive

Cdk8
- p65 translocation robust z-score: 0.8
- nuclear/cytoplasmic p65 ratio, rep 1: 1.84
- nuclear/cytoplasmic p65 ratio, rep 2: 1.47
- low cell count flag: enough cells to score
- Call: inactive

Ift38
- nuclear/cytoplasmic p65 ratio, rep 1: 1.13
- nuclear/cytoplasmic p65 ratio, rep 2: 1.51
- low cell count flag: fewer than 50 cells per well; well left out of scoring
- Call: inactive

Cmklr1
- p65 translocation robust z-score: 0.87
- nuclear/cytoplasmic p65 ratio, rep 1: 1.63
- nuclear/cytoplasmic p65 ratio, rep 2: 1.55
- low cell count flag: enough cells to score
- Call: inactive

Or5p79
- nuclear/cytoplasmic p65 ratio, rep 1: 1.21
- nuclear/cytoplasmic p65 ratio, rep 2: 1.09
- low cell count flag: fewer than 50 cells per well; well left out of scoring
- Call: inactive

Dnajc1
- p65 translocation robust z-score: 0.61
- nuclear/cytoplasmic p65 ratio, rep 1: 1.58
- nuclear/cytoplasmic p65 ratio, rep 2: 1.41
- low cell count flag: enough cells to score
- Call: inactive

Or5h26
- p65 translocation robust z-score: -0.9
- nuclear/cytoplasmic p65 ratio, rep 1: 1.45
- nuclear/cytoplasmic p65 ratio, rep 2: 1.33
- low cell count flag: enough cells to score
- Call: inactive

Gjb3
- p65 translocation robust z-score: 0.05
- nuclear/cytoplasmic p65 ratio, rep 1: 1.35
- nuclear/cytoplasmic p65 ratio, rep 2: 1.46
- low cell count flag: enough cells to score
- Call: inactive

Lmf1
- nuclear/cytoplasmic p65 ratio, rep 1: 2.02
- nuclear/cytoplasmic p65 ratio, rep 2: 0
- low cell count flag: fewer than 50 cells per well; well left out of scoring
- Call: inactive

Slc66a1
- p65 translocation robust z-score: -0.77
- nuclear/cytoplasmic p65 ratio, rep 1: 1.24
- nuclear/cytoplasmic p65 ratio, rep 2: 1.17
- low cell count flag: enough cells to score
- Call: inactive

Cnih3
- nuclear/cytoplasmic p65 ratio, rep 1: 1.16
- nuclear/cytoplasmic p65 ratio, rep 2: 1.17
- low cell count flag: fewer than 50 cells per well; well left out of scoring
- Call: inactive

Adipor1
- p65 translocation robust z-score: 2.83
- nuclear/cytoplasmic p65 ratio, rep 1: 1.74
- nuclear/cytoplasmic p65 ratio, rep 2: 1.88
- low cell count flag: enough cells to score
- Call: inactive

A run of entries from the list above, for reference:
Ift38
- nuclear/cytoplasmic p65 ratio, rep 1: 1.13
- nuclear/cytoplasmic p65 ratio, rep 2: 1.51
- low cell count flag: fewer than 50 cells per well; well left out of scoring
- Call: inactive

Cmklr1
- p65 translocation robust z-score: 0.87
- nuclear/cytoplasmic p65 ratio, rep 1: 1.63
- nuclear/cytoplasmic p65 ratio, rep 2: 1.55
- low cell count flag: enough cells to score
- Call: inactive

More reagents:
Reg1
- p65 translocation robust z-score: -0.53
- nuclear/cytoplasmic p65 ratio, rep 1: 1.22
- nuclear/cytoplasmic p65 ratio, rep 2: 1.16
- low cell count flag: enough cells to score
- Call: inactive

Pramel48
- p65 translocation robust z-score: 1.59
- nuclear/cytoplasmic p65 ratio, rep 1: 1.78
- nuclear/cytoplasmic p65 ratio, rep 2: 1.79
- low cell count flag: enough cells to score
- Call: inactive

Hsd11b2
- p65 translocation robust z-score: -0.81
- nuclear/cytoplasmic p65 ratio, rep 1: 1.35
- nuclear/cytoplasmic p65 ratio, rep 2: 1.25
- low cell count flag: enough cells to score
- Call: inactive

Zfp617
- nuclear/cytoplasmic p65 ratio, rep 1: 1.45
- nuclear/cytoplasmic p65 ratio, rep 2: 1.29
- low cell count flag: fewer than 50 cells per well; well left out of scoring
- Call: inactive

Klf2
- p65 translocation robust z-score: -1.08
- nuclear/cytoplasmic p65 ratio, rep 1: 1.29
- nuclear/cytoplasmic p65 ratio, rep 2: 1.27
- low cell count flag: enough cells to score
- Call: inactive

Myl1
- p65 translocation robust z-score: -1.81
- nuclear/cytoplasmic p65 ratio, rep 1: 1.58
- nuclear/cytoplasmic p65 ratio, rep 2: 1.24
- low cell count flag: enough cells to score
- Call: active

Bmp8a
- p65 translocation robust z-score: -0.27
- nuclear/cytoplasmic p65 ratio, rep 1: 1.56
- nuclear/cytoplasmic p65 ratio, rep 2: 1.59
- low cell count flag: enough cells to score
- Call: inactive
